Data published in PubChem BioAssay AID662 (National Center for Advancing Translational Sciences (NCATS), 2007).
The other results are listed elsewhere or left out. These are further read-outs of the screen, such as a control signal, another cell line or another target. No call is given for them. Most of these compounds were active or inconclusive in the main read-out, so they are no random draw. The note in brackets gives the kind of curve behind each potency; many fits are weak.

Test: Cell signaling CRE-BLA (Fsk stim)
Conditions: CHO CRE-bla reporter (cAMP response element driving beta-lactamase), forskolin EC10, beta-lactamase ratio; measured here: 460 nm blue channel
Summary of the method: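 The 460nm/530nm emission ratio after CCF4 loading defined %Activity, from which AC50 values were obtained. CRE-bla CHO cells received compound dilution series together with an EC10 level of NKH 477 for 3 hours at 37 degrees Celsius.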
For `O=C1CN(/N=C\c2ccc([N+](=O)[O-])o2)C(=O)N1`, the AC50 was 12.6 µM [falling, single point].
In the case of `COC(=O)C1CCN(C(=O)CCCOc2ccccc2)CC1`, the AC50 is reported as 0.631 µM [rising, full curve, poor fit].
In the case of `C=C(C)COc1ccc(-c2[nH]ncc2-c2ccccc2OC)c(O)c1`, the AC50 is reported as 3.98 µM [falling, partial curve].
For `CCC(=O)N1CCc2cc(S(=O)(=O)NCCC(=O)N3CCc4ccccc4C3)ccc21`, the AC50 was 0.0316 µM [falling, full curve].
In the case of `Cc1csc(=O)n1CCC(=O)O`, the AC50 is reported as 15.8 µM [rising, single point].
In the case of `COC(=O)c1ccc(CSc2ccc3nnc(-c4cccnc4)n3n2)o1`, the AC50 is reported as 10 µM [rising, partial curve].
For `O=C(O)c1cccc2c1C(=O)N(Cc1ccncc1)C2`, the AC50 was 3.98 µM [falling, full curve].
In the case of `CCOc1ccccc1N1CCN(C(=O)c2cc3c(s2)CCC3)CC1`, the AC50 is reported as 3.16 µM [falling, full curve, poor fit].
In the case of `CCN(C(=O)c1cc2cc3ccc(C)cc3nc2o1)c1ccc(OC)cc1`, the AC50 is reported as 12.6 µM [rising, partial curve, poor fit].
In the case of `CC1=CC(=O)C2=C(C)CC[C@@H]3[C@H](OC(=O)[C@H]3C)[C@H]12`, the AC50 is reported as 0.0794 µM [rising, full curve, poor fit].
In the case of `COC(=O)C(CC(=O)c1ccc(Br)cc1)n1ccnc1` (stereo not drawn), the AC50 is reported as 15.8 µM [falling, partial curve].
For `Fc1ccc(-c2nc3nc4ccccc4nc3n2Cc2ccco2)cc1`, the AC50 was 20 µM [rising, single point].
With `Cc1noc(C)c1COc1cccc(C(=O)N2CCN(C/C=C/c3ccccc3)CC2)c1` the AC50 was 0.00316 µM [falling, full curve, poor fit].
With `CN(C)c1ncc2nc(-c3ccccc3)c(=O)n(C)c2n1` the AC50 was 7.94 µM [rising, partial curve].
In the case of `COc1ccc(C)cc1N(CC(N)=O)S(=O)(=O)c1ccc(C)cc1`, the AC50 is reported as 0.0158 µM [rising, single point].
For `CCCOC(=O)Nc1ccc(S(=O)(=O)Nn2cnnc2)cc1`, the AC50 was 0.251 µM [rising, partial curve].
In the case of `COC(=O)c1sc(NC(=O)c2cc3c(s2)CCCC3)nc1C`, the AC50 is reported as 20 µM [falling, single point].
With `COC(=O)c1cn(-c2ccccc2)nc1C(=O)OC` the AC50 was 10 µM [rising, partial curve].
With `CN1C(=O)C(O)(C2COC(C)(C)CC2=O)c2ccccc21` (stereo not drawn) the AC50 was 0.00316 µM [falling, full curve, poor fit].
In the case of `CN1CCN(c2ncc3nc(-c4cccc(C#N)c4)c(=O)n(CCC#N)c3n2)CC1`, the AC50 is reported as 10 µM [rising, partial curve].
In the case of `COc1ccc(-c2nc(CSCC(=O)N3CCN(C(=O)c4ccco4)CC3)c(C)o2)cc1OC`, the AC50 is reported as 12.6 µM [rising, partial curve].
In the case of `CN(Cc1ccccc1)C(=O)CSc1nc2ccccc2c(=O)n1Cc1ccco1`, the AC50 is reported as 10 µM [rising, single point].
In the case of `CCOC(=O)C1CCN(C(=O)CN2C(=O)C(CC)Oc3ccccc32)CC1` (stereo not drawn), the AC50 is reported as 0.398 µM [falling, single point].
In the case of `Cc1cc(N2C(=O)C3C4c5ccccc5C(c5ccccc54)C3C2=O)no1` (stereo not drawn), the AC50 is reported as 0.398 µM [rising, partial curve, poor fit].
For `O=C(CSc1nc(-c2ccco2)cc(C(F)(F)F)n1)Nc1cccnc1`, the AC50 was 12.6 µM [rising, single point].
For `CC(=O)Oc1ccc2c(C)c(CC(C)O)c(=O)oc2c1` (stereo not drawn), the AC50 was 10 µM [rising, partial curve].
In the case of `COc1ccccc1CNc1ncncc1-c1ccc(N(C)C)cc1`, the AC50 is reported as 2 µM [falling, partial curve].
With `COC(=O)c1ccc(CSc2nccn2C)cc1` the AC50 was 0.00398 µM [falling, full curve, poor fit].
In the case of `c1ccc(-c2nnc(SCc3cn4ccsc4n3)o2)cc1`, the AC50 is reported as 10 µM [rising, single point].
With `O=C(CSc1nnc(-c2ccc(S(=O)(=O)N3CCOCC3)cc2)o1)c1ccccc1F` the AC50 was 25.1 µM [falling, single point].
In the case of `O=C(CCC1N=C2c3ccccc3N=C(SCc3cccc(Cl)c3)N2C1=O)NCc1ccco1` (stereo not drawn), the AC50 is reported as 0.794 µM [rising, full curve].
With `COc1ccc(C(CNC(=O)c2ccc3c(c2)C(=O)N(CCC(C)C)C3=O)N2CCOCC2)cc1` (stereo not drawn) the AC50 was 0.2 µM [falling, partial curve].
For `COc1cc(C(=O)Nc2nc3ccc(S(=O)(=O)N4CCOCC4)cc3s2)cc(OC)c1OC`, the AC50 was 5.01 µM [rising, partial curve].
In the case of `CN1CCN(CC(=O)N2CCn3c4c(c5cc(C6CCCCC6)ccc53)CCCC42)CC1` (stereo not drawn), the AC50 is reported as 12.6 µM [rising, single point].
For `Cc1[nH]c(=O)[nH]c(=O)c1S(=O)(=O)N(C)Cc1ccccc1`, the AC50 was 5.01 µM [rising, single point].
For `CCNC(=O)CC1SC(=Nc2cccc(Cl)c2C)N(C)C1=O` (stereo not drawn), the AC50 was 3.98 µM [falling, partial curve].
In the case of `O=c1c(Cc2ccccc2)c(O)nc2n1CCS2`, the AC50 is reported as 15.8 µM [falling, partial curve].
With `COc1ccccc1Nc1nc(N)nc(CSc2ncccn2)n1` the AC50 was 12.6 µM [rising, partial curve].
In the case of `CCn1c(SCc2ccc(OC)cc2)nnc1-c1ccncc1`, the AC50 is reported as 25.1 µM [falling, single point].
For `COc1ccc(/C=N/n2cnnc2SCc2ccccc2)cc1`, the AC50 was 12.6 µM [rising, single point].
With `COc1ccc(CNc2ccnc(-c3c(C)noc3C)n2)c(OC)c1` the AC50 was 12.6 µM [rising, single point].
For `O=C(CSc1ncccn1)NC(=O)NCc1ccccc1`, the AC50 was 3.16 µM [falling, partial curve].
In the case of `O=C(Nc1nc(-c2ccc3c(c2)OCCO3)cs1)c1ccc(S(=O)(=O)N2CCCCC2)cc1`, the AC50 is reported as 20 µM [falling, single point].
For `COc1ccc(CCNC(=O)c2cc(-c3ccccc3)on2)cc1OC`, the AC50 was 0.631 µM [rising, full curve].
With `COc1cccc(OC)c1OCCNC[C@@H]1COc2ccccc2O1` the AC50 was 10 µM [falling, partial curve, poor fit].
For `COc1ccc(Oc2ncc3nc(-c4ccccc4)c(=O)n(C4CC4)c3n2)cc1`, the AC50 was 15.8 µM [rising, partial curve].
For `CC1=C(C(N)=O)C(c2cccc(OCc3ccccc3)c2)n2nnnc2N1` (stereo not drawn), the AC50 was 25.1 µM [rising, single point].
In the case of `O=S(=O)(c1ccc2c(c1)C(=NO)c1cc(S(=O)(=O)N3CCCCC3)ccc1-2)N1CCCCC1`, the AC50 is reported as 3.98 µM [falling, full curve].
In the case of `COCCn1c(=O)c(-c2ccc(OC)cc2)nc2cnc(Oc3ccc(OC)cc3)nc21`, the AC50 is reported as 5.01 µM [rising, partial curve].
For `N#Cc1nc(N2CCCCC2)nc(N2CCOCC2)n1`, the AC50 was 2.51 µM [rising, full curve, poor fit].
For `COc1cccc(-c2csc(N3CCN(C(=O)C4CCCCC4)CC3)n2)c1`, the AC50 was 20 µM [falling, single point].
With `FC(F)(F)c1ccccc1-c1ccc2ncnc(NC3CC3)c2c1` the AC50 was 5.01 µM [rising, full curve].
For `c1ccc(-c2nc(NCc3ccco3)c3ccccc3n2)nc1`, the AC50 was 12.6 µM [rising, single point].
With `CC(C)c1ccc(NC(=O)c2cccnc2)cc1` the AC50 was 1 µM [falling, partial curve].
With `O=C(CSc1n[nH]c(-c2ccccc2)n1)NC(=O)NCc1ccco1` the AC50 was 5.01 µM [falling, single point].
For `O=c1c(-c2ccc(Cl)cc2)nc2cncnc2n1Cc1ccccc1`, the AC50 was 12.6 µM [rising, partial curve].
For `Cc1nn(CCO)c(C)c1Oc1ccccc1O`, the AC50 was 0.00316 µM [falling, full curve, poor fit].
With `COCCn1nnnc1CN(Cc1cc2cc(OC)c(OC)cc2[nH]c1=O)C1CCCC1` the AC50 was 12.6 µM [rising, single point].
With `CC(C)CCOCC(=O)Nc1cccc(C(=O)O)c1` the AC50 was 3.98 µM [falling, partial curve].
With `CCOc1ccccc1NC(=O)c1ccccc1-c1nc(-c2ccccc2)no1` the AC50 was 3.98 µM [falling, partial curve].
In the case of `O=c1[nH]c(SCc2cc(=O)n3ccccc3n2)nc2c1CCC2`, the AC50 is reported as 10 µM [rising, partial curve].
With `COC(=O)c1ccc(S(=O)(=O)NCCSc2nnc3c4ccccc4n(C)c3n2)cc1` the AC50 was 3.98 µM [rising, single point].
With `O=c1c(-c2cccs2)nc2cnc(N3CCNCC3)nc2n1-c1ccccc1` the AC50 was 3.16 µM [rising, full curve].
For `CCOc1cc(C2NC(=O)NC(C)=C2C(=O)OC(C)CC)cc(Br)c1O` (stereo not drawn), the AC50 was 10 µM [rising, partial curve].
With `COCCn1c(=S)[nH]c2cc(C(=O)N3CCN(c4ccc(F)cc4)CC3)ccc2c1=O` the AC50 was 12.6 µM [rising, single point].
With `COc1ccccc1-c1ccc2ncnc(NCc3cccnc3)c2c1` the AC50 was 3.16 µM [rising, full curve, poor fit].
In the case of `COC(=O)c1ccc(NC(=O)CNC(=O)C2CCCCC2)cc1`, the AC50 is reported as 1 µM [rising, single point].
For `CCSc1nnc2c(n1)OC=Nc1ccc(Br)cc1-2`, the AC50 was 15.8 µM [falling, partial curve].
